Among all 300,000 compounds or so, about 3,700 (1.2%) were called active. The inconclusive results got no clear call from the source; some entries with a clear call stand among them for comparison. Calls follow the shape of the full dose curve; tested in HEK293 cells. Potencies beside an inconclusive call are fits to weak or partial responses and may not hold up.
Assay: qHTS for Inhibitors of binding or entry into cells for Lassa Virus; also: nearly all actives have a fitted effect of over 50% in size
Conditions: Lassa virus pseudotype entry inhibition, cell reporter; series mostly up to 37.9 µM
Potency is read from the fitted curve at half-maximal effect.

Compound | Potency
COc1ccc(CCC(=O)N/N=C(\C)c2ccc3c(c2)OCO3)cc1 | active: 0.355 µM
COc1ccc(C(C(C(=O)c2cccs2)N2CCOCC2)N2CCOCC2)cc1OC (configuration not stated) | inactive
CCOC(=O)C1C(C(=O)Nc2cccc(C(F)(F)F)c2)C1C(=O)NC(C)C (configuration not stated) | inconclusive: 3.55 µM [activator, partial curve, poor fit]
C=CCn1c(C)cc(C(=O)COC(=O)[C@@H](NC(=O)c2ccccc2Cl)C(C)C)c1C | inconclusive: 17.8 µM [inhibitor, partial curve]
c1ccc2c(c1)nc(N1CCCCC1)c1ccccc12 | inactive
Cc1cccc(/C=C/c2onc(C)c2[N+](=O)[O-])n1 | inactive
O=C(/C=C/c1ccco1)Nc1ccc(N2CCCC2)cc1 | inconclusive: 29.1 µM [inhibitor, single point]
Cc1cccc(C(=O)NCc2nnc(SCC(=O)NC(C)c3ccccc3)n2C)c1 (configuration not stated) | inactive
COc1ccc(C)cc1NC(=O)CSc1ccc(-c2ccccn2)nn1 | inconclusive: 10 µM [inhibitor, partial curve, poor fit]
CCc1ccc(NC(=O)CSc2nc3ccccc3c(=O)n2CCN2CCOCC2)cc1 | inconclusive: 35.5 µM [inhibitor, single point]
Cc1ccc(/C=C2/SC(=S)N(CCCC(=O)Nc3ccc(O)cc3)C2=O)cc1 | inconclusive: 1.78 µM [inhibitor, partial curve, poor fit]
Cc1nn(CCOc2ccccc2)c(=O)n1-c1ccc(F)cc1 | inconclusive: 11.2 µM [activator, partial curve, poor fit]
CCOc1ccc(NS(=O)(=O)c2cc(OC)ccc2OC)cc1 | inactive
Cc1ccccc1C(=O)N1CCc2cc(-c3nc(NC(=O)Cc4ccc5c(c4)OCO5)sc3C)ccc21 | inconclusive: 6.51 µM [inhibitor, single point]
COc1ccccc1OCC(=O)Nc1nc(C)c(C)s1 | active: 12.6 µM
CCn1cc(C(=O)NCCc2ccc(C)cc2)c(=O)c2cc(S(=O)(=O)N3CCCCC3)ccc21 | inconclusive: 3.55 µM [inhibitor, single point]
COc1ccc(NS(=O)(=O)c2ccc(N3CCOCC3)c(NC(=O)c3ccc(OC)cc3)c2)cc1 | inconclusive: 14.1 µM [inhibitor, partial curve, poor fit]
O=S(=O)(c1ccccc1)N1CCN(c2nnnn2-c2ccccc2)CC1 | inactive
O=C(Nc1ccc2c(c1)OCO2)c1cccc(F)c1 | inconclusive: 6.31 µM [activator, single point]
Cc1ccc(S(=O)(=O)Nc2nc3n(n2)C(c2ccccc2Cl)C=C(c2ccccc2)N3)cc1 (configuration not stated) | inactive
CCOc1cc(CNC2CCCC2)cc(Cl)c1OCc1ccccc1 | inconclusive: 22.4 µM [inhibitor, single point]
CN(C)c1ccc(/C=N/NC(=O)c2ccccc2Cl)cc1 | inconclusive: 7.31 µM [inhibitor, partial curve]
O=C(c1cccs1)N1N=C(c2ccccc2)CC1c1ccccc1 (configuration not stated) | inconclusive: 18.3 µM [inhibitor, single point]

Compound | Potency
Cc1snc(SCC(=O)c2ccc(Cl)cc2)c1C#N | inactive
COc1ccc(C2(CNC(=O)c3ccc(OCC(C)C)cc3)CCOCC2)cc1 | inconclusive: 12.6 µM [inhibitor, partial curve, poor fit]
CC(O)CC(C(=O)NNc1ccccc1)C(=O)NNc1ccccc1 (configuration not stated) | inconclusive: 11.2 µM [inhibitor, single point]
CC1CC(C)CN(C(=O)c2cccc(S(=O)(=O)N(C)c3ccccc3)c2)C1 (configuration not stated) | inconclusive: 14.1 µM [inhibitor, partial curve, poor fit]
Cc1cccc(N2CCN(CCCNC(=O)c3nnc(Cc4c(F)cccc4Cl)o3)CC2C)c1 (configuration not stated) | inactive
CC(C)CN(C(=O)COC(=O)c1ccccc1NCc1ccco1)c1c(N)n(Cc2ccccc2)c(=O)[nH]c1=O | inconclusive: 12.6 µM [inhibitor, single point]
CCOc1ccc(N(CC(=O)NC2CCCC2)S(=O)(=O)c2ccccc2)cc1 | inactive
COc1ccc(C2=C(C)C(=O)N(Cc3ccc(C(=O)Nc4cc(C)ccc4C)cc3)S2(=O)=O)cc1 | inconclusive: 35.5 µM [inhibitor, single point]
O=C(Cc1ccc(Cl)cc1)NCC(c1cccs1)S(=O)(=O)c1ccc(F)cc1 (configuration not stated) | inconclusive: 12.6 µM [inhibitor, partial curve]
Cc1ccc(S(=O)(=O)N2CCC(=O)N(C(COCc3cccc(Cl)c3)Cc3ccccc3)CC2)cc1 (configuration not stated) | inconclusive: 16.4 µM [inhibitor, partial curve, poor fit]
O=c1c(C=NCc2cccnc2)c(C(F)(F)F)[nH]n1-c1nc2ccccc2s1 | inconclusive: 3.55 µM [inhibitor, partial curve, poor fit]
O=C(NCc1ccccc1Cl)C1CCN(S(=O)(=O)c2ccc(F)cc2)CC1 | inconclusive: 11.2 µM [inhibitor, partial curve]
C=CC(=O)NC(NC(=O)C=C)c1ccc(Br)cc1 | inconclusive: 0.259 µM [inhibitor, partial curve, poor fit]
CCN(CC)S(=O)(=O)c1nnc(NC(=O)c2ccc(C(C)C)cc2)s1 | inconclusive: 6.31 µM [activator, single point]
O=c1[nH]c2cc(Cl)ccc2c(O)c1-c1ccc(Oc2ccccc2)cc1 | inactive
COc1ccc(OCCCC(=O)Nc2ccc3c(c2)OCCO3)cc1 | inactive
CC(C)[C@@H](CO[Si](C)(C)C(C)(C)C)N1CC=CS1(=O)=O | inactive
COc1ccc(OC)c(C(=O)CN2CCN(S(=O)(=O)c3ccc(Br)cc3)CC2)c1 | inconclusive: 0.0891 µM [inhibitor, full curve, poor fit]
CC(C)c1ccc(NC(=O)N2CCc3ccccc3C2)cc1 | inconclusive: 28.2 µM [inhibitor, single point]
O=C(Nc1c(Br)cc2c(c1Br)Cc1cc([N+](=O)[O-])ccc1-2)C(Cl)Cl | inactive
CSc1ccccc1C(=O)NCc1ccc(C)cc1 | inconclusive: 5.62 µM [inhibitor, single point]
COc1ccc(N2C[C@H](Cc3ccccc3)[C@@H](CC(=O)Nc3ccccc3)C2=O)cc1 | inconclusive: 17.7 µM [inhibitor, partial curve, poor fit]
CN(C)S(=O)(=O)c1ccc(Oc2ccc(S(=O)(=O)N(C)C)cc2)cc1 | inconclusive: 20 µM [inhibitor, partial curve, poor fit]

A different layout for 19 compounds above.
Compound	Potency
Cc1snc(SCC(=O)c2ccc(Cl)cc2)c1C#N	inactive
COc1ccc(C2(CNC(=O)c3ccc(OCC(C)C)cc3)CCOCC2)cc1	inconclusive: 12.6 µM [inhibitor, partial curve, poor fit]
CC(O)CC(C(=O)NNc1ccccc1)C(=O)NNc1ccccc1 (configuration not stated)	inconclusive: 11.2 µM [inhibitor, single point]
CC1CC(C)CN(C(=O)c2cccc(S(=O)(=O)N(C)c3ccccc3)c2)C1 (configuration not stated)	inconclusive: 14.1 µM [inhibitor, partial curve, poor fit]
Cc1cccc(N2CCN(CCCNC(=O)c3nnc(Cc4c(F)cccc4Cl)o3)CC2C)c1 (configuration not stated)	inactive
COc1ccc(C2=C(C)C(=O)N(Cc3ccc(C(=O)Nc4cc(C)ccc4C)cc3)S2(=O)=O)cc1	inconclusive: 35.5 µM [inhibitor, single point]
O=C(Cc1ccc(Cl)cc1)NCC(c1cccs1)S(=O)(=O)c1ccc(F)cc1 (configuration not stated)	inconclusive: 12.6 µM [inhibitor, partial curve]
Cc1ccc(S(=O)(=O)N2CCC(=O)N(C(COCc3cccc(Cl)c3)Cc3ccccc3)CC2)cc1 (configuration not stated)	inconclusive: 16.4 µM [inhibitor, partial curve, poor fit]
O=c1c(C=NCc2cccnc2)c(C(F)(F)F)[nH]n1-c1nc2ccccc2s1	inconclusive: 3.55 µM [inhibitor, partial curve, poor fit]
C=CC(=O)NC(NC(=O)C=C)c1ccc(Br)cc1	inconclusive: 0.259 µM [inhibitor, partial curve, poor fit]
CCN(CC)S(=O)(=O)c1nnc(NC(=O)c2ccc(C(C)C)cc2)s1	inconclusive: 6.31 µM [activator, single point]
COc1ccc(OCCCC(=O)Nc2ccc3c(c2)OCCO3)cc1	inactive
CC(C)[C@@H](CO[Si](C)(C)C(C)(C)C)N1CC=CS1(=O)=O	inactive
COc1ccc(OC)c(C(=O)CN2CCN(S(=O)(=O)c3ccc(Br)cc3)CC2)c1	inconclusive: 0.0891 µM [inhibitor, full curve, poor fit]
CC(C)c1ccc(NC(=O)N2CCc3ccccc3C2)cc1	inconclusive: 28.2 µM [inhibitor, single point]
O=C(Nc1c(Br)cc2c(c1Br)Cc1cc([N+](=O)[O-])ccc1-2)C(Cl)Cl	inactive
CSc1ccccc1C(=O)NCc1ccc(C)cc1	inconclusive: 5.62 µM [inhibitor, single point]
COc1ccc(N2C[C@H](Cc3ccccc3)[C@@H](CC(=O)Nc3ccccc3)C2=O)cc1	inconclusive: 17.7 µM [inhibitor, partial curve, poor fit]
CN(C)S(=O)(=O)c1ccc(Oc2ccc(S(=O)(=O)N(C)C)cc2)cc1	inconclusive: 20 µM [inhibitor, partial curve, poor fit]

Following part:

Compound | Potency
COC(=O)c1ccc(N2CCCCC2)c(N)c1 | inactive
Cc1ccc(N2C(=O)CCSC23C(=O)Nc2ccccc23)cc1 (configuration not stated) | inconclusive: 6.51 µM [activator, single point]
Cn1c(SCC(N)=O)nnc1C1CCN(C(=O)NCc2ccccc2)CC1 | inconclusive: 35.5 µM [activator, single point]
CNS(=O)(=O)c1ccc2nc(NC(=O)/C=C/c3ccco3)sc2c1 | inactive
CCOC(=O)c1c(C)oc2nc(C)nc(NCCc3ccc(SC)cc3)c12 | inconclusive: 5.62 µM [inhibitor, partial curve, poor fit]
Cc1nc(CC(=O)Nc2nc(C(C)(C)C)cs2)cs1 | inconclusive: 13 µM [inhibitor, partial curve, poor fit]
Cc1ccc(S(=O)(=O)c2nc(S(C)(=O)=O)sc2NCc2ccccc2)cc1 | inconclusive: 6.31 µM [inhibitor, full curve]
COc1ccccc1N1CCN(c2nc3ccc(C)cc3n3nnnc23)CC1 | inactive
CCN(CC)S(=O)(=O)c1ccc2c(c1)N(CC(=O)Nc1ccc(C)cc1C)C(=O)C1CCCN21 (configuration not stated) | inactive
O=c1[nH]c(CSc2nc3ccccc3o2)nc2c1cnn2-c1ccccc1 | inactive
COc1ccc(C2=CC(c3cccc(C)c3)n3nnnc3N2)cc1 (configuration not stated) | inactive
O=C(CN1C(=O)c2ccccc2C1=O)N1CCN=C1c1ccccc1 | inconclusive: 1.26 µM [inhibitor, single point]
COc1ccc(C2NC(=O)c3ccccc3O2)c(OC)c1OC (configuration not stated) | inactive
CCc1nnc(NC(=O)CSc2nc3c(cc2C#N)CCCC3)s1 | inconclusive: 18.3 µM [inhibitor, partial curve]
O=C(Cc1ccc(F)cc1)Nc1ccc(S(=O)(=O)N2CCCCC2)cc1 | inconclusive: 11.2 µM [inhibitor, partial curve, poor fit]
Cc1[nH][nH]c(=O)c1C(c1c(C)[nH][nH]c1=O)c1cn(Cc2cccc3ccccc23)c2ccccc12 | inconclusive: 22.4 µM [inhibitor, partial curve, poor fit]
CC(C)(C)c1ccc(-c2cc(C(=O)NNC(=O)Nc3ccccc3)c3ccccc3n2)cc1 | active: 5.62 µM
O=C(NNc1cc(Cl)cc(Cl)c1)c1c(F)cccc1Cl | inconclusive: 0.1 µM [activator, full curve, poor fit]
COc1ccc(N=C2S/C(=C\c3ccco3)C(=O)N2CC(C)C)cc1 | inconclusive: 3.98 µM [inhibitor, partial curve, poor fit]
CN(C1=C(N2CCOCC2)C(=O)c2ccccc2C1=O)c1ccccc1 | inconclusive: 8.2 µM [inhibitor, partial curve]
Cc1nn2c(=O)cc(COC(=O)c3cccc(NC(=O)c4ccc(C(C)(C)C)cc4)c3)nc2s1 | inconclusive: 7.94 µM [inhibitor, partial curve, poor fit]
